Values quoted from earlier work in article PMC11510164 (Pharmaceuticals, 2024).

Conditions: 25 °C, depending on source and conditions

## CC(C)Cc1ccc(C(C)C(=O)O)cc1 (stereo not shown) [IBU, Ibuprofen, reference compound]
  water solubility: 40 to 70 µg/mL
